# Results as given in patent publication US20120231072A1, “THERMO-RESPONSIVE HYDROGEL COMPOSITIONS” (Chemisches Institut Schaefer AG, priority 2011, published 2012).
# Where a name gives a salt, the structure may show the parent alone. Marks after values point to notes of the source that are not given here.
# Columns and labels:
# [1] = Drug encapsulation efficiency in PLGA particles; format: physicochemical; conditions: spectrophotometry at 240 nm
# Experimental: PLGA (50 mg) was dissolved in dichloromethane (1 ml) followed by the addition of 0.1 ml DSP methanol solution (50 mg/ml). The clear organic mixture was emulsified into an external aqueous phase (5 ml, 2% w/v PVA) with vortexing for 20 seconds followed by sonication on ice at 55 W for 5 minutes. […] Nanospheres were harvested by ultracentrifugation at 16,000 g for 10 min, after which the resultant pellet was re-suspended in DI water by sonication and washed twice with DI water. To quantify drug encapsulation, the PLGA nanospheres were incubated overnight in 1N NaOH solution at 37° C. to allow complete PLGA degradation. The resultant solution was read spectrophotometrically at 240 nm for DSP concentration. Dynamic light scattering (DLS) was used to characterize the size of the nanospheres. […]
# To test encapsulation efficiency, 1 ml of the PLGA microspheres and nanospheres suspensions were incubated overnight in 1 N NaOH solution at 37° C. to completely degrade PLGA in order to determine the total amount encapsulated in the PLGS. The drug concentration was determined spectrophotometrically at 240 nm. […] The encapsulation efficiency was calculated as (actual drug loaded/total drug used)×100%.
# [2] = system: 3T3 fibroblast cells; test: Fibroblast MTS anti-proliferative activity assay; format: cell-based; conditions: mouse fibroblast cells, previous tests
# Experimental: PLGA nanospheres with DSP were loaded into the thermo-responsive hydrogels at 10 mg/ml. […] After cells were grown to semiconfluence, growth was arrested by washing plates with PBS and then adding low serum medium with DMEM, 0.5% (v/v) FBS and 1% (v/v) penicillin/streptomycin mixture. Growth arrest was maintained for 24 hours. […] PBS was added to growth medium as control group.
structure (smiles),measurement,setting,value
"C[C@@H]1C[C@H]2[C@@H]3CCC4=CC(=O)C=C[C@]4(C)[C@@]3(F)[C@@H](O)C[C@]2(C)[C@@]1(O)C(=O)COP(=O)(O)O [DSP, Dexamethasone 21-phosphate disodium salt]",Encapsulation efficiency,[1]; Microspheres,7.6%^#
same,Encapsulation efficiency,[1]; Nanospheres,30%^#
same,anti-proliferative activity,[2],dose-dependent anti-proliferative activity
